# Molecular target: T1, FLJ39196 clone-derived protein (human neurocalcin δ) (Homo sapiens, UniProt P61601)
# T1 construct: A human full-length cDNA clone was expressed as a protein with an N-terminal His tag; His tag (N); made in house; host or cells: Escherichia coli BL21star(DE3)pLysS (pDEST17 Gateway expression plasmid)
# Test: SEC/MS interaction analysis (size exclusion spin column and mass analysis) with FLJ39196 clone-derived protein
# Assay type: binding
# From the text: To analyze the interactions between commonly used drugs and proteins expressed from human full-length cDNA clones while keeping both the proteins and the compounds in non-modified, non-immobilized state, size exclusion chromatography (SEC) and mass analysis were used in combination (FIGS. 1, 2). The specific procedures are shown below.
# The compound-protein mixture prepared in step 1 was subjected to chromatography using an SEC column, the compound and the protein were separated by SEC, and the compound that interacted with the bound compound or protein contained in the protein fraction was analyzed using a mass analyzer.
# Protein concentrations were measured using BCA Protein Assay (PIERCE), in consideration of the purity calculated by SDS-PAGE.
# Mass analysis was performed using LCQ DECA XP (Thermoelectron) or Q-TOFmicro (Micromass), equipped with an ESI probe. The LC pump used was Agilent 1100 (Yokogawa Analytical Systems), and the autosampler used was HTC-PAL (CTC Analytics) equipped with a cooling stacker.
# In the SEC method using 384-well spin columns, Unifilter 100 (Whatman), packed with 10 μL (dry volume) of Bio-Gel P6 (BIO-RAD) and swollen with milliQ water, was used as the SEC column. 13.3 μL of a protein-free reference standard or a 25 μM protein standard and 0.7 μL of a multiplied liquid comprising 25 μM of each pharmaceutical compound (5% DMSO aqueous solution) were mixed; 9 μL of this mixture was aliquoted into the SEC spin columns. The SEC spin column was mounted on an acetonitrile-aliquoted 384-well U-bottom plate and centrifuged; the SEC spin column filtrate, which is a protein fraction, was retrieved in 50% acetonitrile. The protein precipitate produced by the acetonitrile was removed via centrifugation and filtration for deproteinization; the resulting filtrate was concentrated by centrifugation and re-dissolved in 10 μL of 50% methanol to obtain a mass analysis sample. The mobile phase supplied to the mass analyzer was 0.1% formic acid/50% methanol solution in the positive ion mode, and 0.1% ammonia/50% methanol solution in the negative ion mode; these mobile phases were used at a flow rate of 40 μL/min. 2-μL of mass analysis samples were injected using an autosampler at 2-minute intervals; the mass spectral intensity of the compound was measured to obtain the spectral intensity of the pharmaceutical compound contained in the SEC spin column filtrate (protein fraction eluted from SEC).
smiles,measurement,setting,value
CC(C)c1c(C(=O)Nc2ccccc2)c(-c2ccccc2)c(-c2ccc(F)cc2)n1CC[C@@H](O)C[C@@H](O)CC(=O)O [atorvastatin],interaction between the protein and the compound (judgement from spectrum intensity),intensity increased depending on the doses of both compound and protein,dose-dependent interaction
same,spectral intensity of the compound in the SEC spin column filtrate (protein fraction),"protein 0 μM (protein-free reference), compound 12.5 μM",31597
same,spectral intensity of the compound in the SEC spin column filtrate (protein fraction),"protein 0 μM (protein-free reference), compound 25 μM",68345
same,spectral intensity of the compound in the SEC spin column filtrate (protein fraction),"protein 0 μM (protein-free reference), compound 62.5 μM",604452
same,spectral intensity of the compound in the SEC spin column filtrate (protein fraction),"protein 5 μM, compound 12.5 μM",247204
same,spectral intensity of the compound in the SEC spin column filtrate (protein fraction),"protein 5 μM, compound 25 μM",110996
same,spectral intensity of the compound in the SEC spin column filtrate (protein fraction),"protein 5 μM, compound 62.5 μM",2703426
same,spectral intensity of the compound in the SEC spin column filtrate (protein fraction),"protein 10 μM, compound 12.5 μM",569000
same,spectral intensity of the compound in the SEC spin column filtrate (protein fraction),"protein 10 μM, compound 25 μM",597628
same,spectral intensity of the compound in the SEC spin column filtrate (protein fraction),"protein 10 μM, compound 62.5 μM",3448280
same,spectral intensity of the compound in the SEC spin column filtrate (protein fraction),"protein 25 μM, compound 12.5 μM",1285142
same,spectral intensity of the compound in the SEC spin column filtrate (protein fraction),"protein 25 μM, compound 25 μM",2719479
same,spectral intensity of the compound in the SEC spin column filtrate (protein fraction),"protein 25 μM, compound 62.5 μM",7108230

# Reference: patent US8178077B2, “Drug development target protein and target gene, and method of screening” (Reverse Proteomics Research Institute Co., Ltd., priority 2004, dated 2012)
